Test results: PMC6393303
These are yes or no findings as the source states them, for the method shown. Some entries that bind do so weakly or less than the wild type.

Molecular target: T1, Pol3 catalytic subunit of mini-Pol δ-DV (N-terminal truncation of 81 amino acids, D520V) (S. cerevisiae) (UniProt P15436)
T1 sequence: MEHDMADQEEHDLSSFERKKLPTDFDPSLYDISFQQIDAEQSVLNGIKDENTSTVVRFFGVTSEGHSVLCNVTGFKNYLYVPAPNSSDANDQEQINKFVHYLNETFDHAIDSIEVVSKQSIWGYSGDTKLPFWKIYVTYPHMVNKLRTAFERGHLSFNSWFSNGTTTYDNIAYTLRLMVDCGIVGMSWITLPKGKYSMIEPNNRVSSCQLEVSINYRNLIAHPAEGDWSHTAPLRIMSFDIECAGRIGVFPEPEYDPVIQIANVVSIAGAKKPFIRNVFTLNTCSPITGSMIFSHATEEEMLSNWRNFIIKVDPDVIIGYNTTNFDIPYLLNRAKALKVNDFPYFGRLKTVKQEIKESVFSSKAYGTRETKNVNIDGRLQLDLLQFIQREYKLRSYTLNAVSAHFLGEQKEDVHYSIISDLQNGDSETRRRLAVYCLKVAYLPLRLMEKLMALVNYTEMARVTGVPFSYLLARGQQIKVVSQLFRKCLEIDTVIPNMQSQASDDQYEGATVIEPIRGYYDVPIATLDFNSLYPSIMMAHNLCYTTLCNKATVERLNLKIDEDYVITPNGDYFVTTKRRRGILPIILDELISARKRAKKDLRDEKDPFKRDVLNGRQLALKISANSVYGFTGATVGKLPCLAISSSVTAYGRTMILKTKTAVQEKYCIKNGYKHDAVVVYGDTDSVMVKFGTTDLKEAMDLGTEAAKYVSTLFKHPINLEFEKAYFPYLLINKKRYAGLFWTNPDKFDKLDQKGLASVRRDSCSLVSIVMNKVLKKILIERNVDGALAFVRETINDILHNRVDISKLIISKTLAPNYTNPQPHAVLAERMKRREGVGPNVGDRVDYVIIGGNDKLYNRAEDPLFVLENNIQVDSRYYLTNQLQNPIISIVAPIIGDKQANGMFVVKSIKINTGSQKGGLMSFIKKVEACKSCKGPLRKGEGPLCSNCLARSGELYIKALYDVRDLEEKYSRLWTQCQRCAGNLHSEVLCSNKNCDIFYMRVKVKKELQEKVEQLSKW
Test: co-purification; mini-Pol δ-DV overexpressed in yeast and purified as a three-subunit complex; subunits seen in approximately equimolar ratio (Supplementary Figure S1A)

B1: Pol31 subunit of mini-Pol δ-DV (protein, UniProt P46957 1-487)
chain: MDALLTKFNEDRSLQDENLSQPRTRVRIVDDNLYNKSNPFQLCYKKRDYGSQYYHIYQYRLKTFRERVLKECDKRWDAGFTLNGQLVLKKDKVLDIQGNQPCWCVGSIYCEMKYKPNVLDEVINDTYGAPDLTKSYTDKEGGSDEIMLEDESGRVLLVGDFIRSTPFITGVVVGILGMEAEAGTFQVLDICYPTPLPQNPFPAPIATCPTRGKIALVSGLNLNNTSPDRLLRLEILREFLMGRINNKIDDISLIGRLLICGNSVDFDIKSVNKDELMISLTEFSKFLHNILPSISVDIMPGTNDPSDKSLPQQPFHKSLFDKSLESYFNGSNKEILNLVTNPYEFSYNGVDVLAVSGKNINDICKYVIPSNDNGESENKVEEGESNDFKDDIEHRLDLMECTMKWQNIAPTAPDTLWCYPYTDKDPFVLDKWPHVYIVANQPYFGTRVVEIGGKNIKIISVPEFSSTGMIILLDLETLEAETVKIDI
  binding: binds
